For one molecule, binding results are on record in article doi:10.1101/2023.12.14.571518 (bioRxiv, 2023).

No constants are given. Whether binding was seen depends on the method and setting. Some binding calls cover weakened binding; strength is not graded here.

The target of test [1] is S. scrofa GCP6 (S. scrofa (endogenous in porcine brain)) (UniProt F1RXS1). Description: cryo-EM structure.
Test [2] addresses S. scrofa GCP3 (S. scrofa (endogenous in porcine brain)) (UniProt F1RN46). Description: cryo-EM structure.

For TVSPTRARNMKDFENQITELKKENFNLKLRIYFLEERMQQEFHGPTEHIY (domain or fragment, human, UniProt Q96SN8 51-100, looked up) [CDK5RAP2(51-100)], the binding entry in test [1] and in test [2] was “binds” in each case.
